Results taken from PubChem BioAssay AID248 (DTP/NCI, 2004).
The list is a part of this screen's results and no random one: it gathers tests that were run many times, whatever their T/C, doses with no T/C, and many T/C values between a quarter and a half above the control. Other doses and runs of a compound stand elsewhere. T/C is the treated group as % of the vehicle group. Some entries give survivors of the animals treated and no T/C: the source files T/C as zero there, which appears to mark a toxic dose or a test without result, not a measured value. Some survivor counts are full or nearly so, which does not show that the dose was tolerated: survival well below the control is almost never listed, so the zero probably covers shortened survival too. Survivors were counted at the toxicity check, usually on the fifth day, unless a day is given; later deaths do not show. Schedule codes are those of the source, read here as Q, the interval in days (D) or hours (H), X, the number of doses. Some schedules carry Z or #; the key to these is not given. Some doses were run more than once; the values are given in rising order. For survival time, this PubChem deposit counts one and a half times the control or more as active, and values a quarter to a half above the control carry no call in these data; other NCI protocols may use other cut-offs. Some T/C values are followed by the survivors on the day toxicity was checked, most often the fifth; where none is given, no animal had died by that day.

Tested on: L1210 leukemia ip in BDF1 mice, survival T/C
Assay: NCI In Vivo Anticancer Drug Screen. Data for tumor model L1210 Leukemia (intraperitoneal) in B6D2F1 (BDF1) mice
Details: T/C endpoint: mean survival time, higher T/C = longer survival
[1] = dose: 54.0 mg/kg/injection, schedule: Q01DX001 (ip), vehicle: other

SMILES: O=NN(CCF)C(=O)NC1CCCCC1
- T/C (dose: 1.56 mg/kg/injection, schedule: Q03HX032 (oral), vehicle: carboxymethylcellulose (CMC)): 133 % of control
- T/C (dose: 2.66 mg/kg/injection, schedule: Q#B X003 (ip), vehicle: other): 134 % of control
- T/C (dose: 3.12 mg/kg/injection, schedule: Q03HX008 (oral), vehicle: carboxymethylcellulose (CMC)): 144 % of control
- T/C (dose: 4.52 mg/kg/injection, schedule: Q01DX015 (ip), vehicle: other): 133 and 147 % of control
- T/C (dose: 7.5 mg/kg/injection, schedule: Q01DX001 (ip), vehicle: carboxymethylcellulose (CMC)): 126 % of control
- T/C (dose: 9.6 mg/kg/injection, schedule: Q## X032 (ip), vehicle: other): 138 % of control
- T/C (dose: 10.0 mg/kg/injection, schedule: Q01DX001 (ip), vehicle: carboxymethylcellulose (CMC)): 132 % of control
- T/C (dose: 10.0 mg/kg/injection, schedule: Q## X032 (ip), vehicle: other): 140 % of control
- survivor count (dose: 12.5 mg/kg/injection, schedule: Q01DX005 (ip), vehicle: carboxymethylcellulose (CMC)): 0 of 8
- survivor count (dose: 12.5 mg/kg/injection, schedule: Q03HX008 (ip), vehicle: carboxymethylcellulose (CMC)): 8 of 8
- T/C (dose: 12.5 mg/kg/injection, schedule: Q04DX004 (ip), vehicle: carboxymethylcellulose (CMC)): 138 % of control
- T/C (dose: 12.5 mg/kg/injection, schedule: Q04DX004 (oral), vehicle: carboxymethylcellulose (CMC)): 138 % of control
- T/C (dose: 13.0 mg/kg/injection, schedule: Q01DX001 (ip), vehicle: carboxymethylcellulose (CMC)): 128 % of control
- survivor count (dose: 13.5 mg/kg/injection, schedule: Q01DX001 (ip), vehicle: other): 2 of 10
- T/C (dose: 14.0 mg/kg/injection, schedule: Q## X032 (ip), vehicle: other): 135 % of control
- T/C (dose: 19.4 mg/kg/injection, schedule: Q01DX001 (ip), vehicle: carboxymethylcellulose (CMC)): 126 % of control
- T/C (dose: 20.0 mg/kg/injection, schedule: Q01DX001 (ip), vehicle: carboxymethylcellulose (CMC)): 149 % of control
- T/C (dose: 22.0 mg/kg/injection, schedule: Q## X032 (ip), vehicle: other): 128 % of control
- T/C (dose: 25.0 mg/kg/injection, schedule: Q01DX013 (ip), vehicle: carboxymethylcellulose (CMC)): 133 % of control
- survivor count (dose: 25.0 mg/kg/injection, schedule: Q03HX008 (ip), vehicle: carboxymethylcellulose (CMC)): 4 of 8
- T/C (dose: 25.0 mg/kg/injection, schedule: Q03HX008 (oral), vehicle: carboxymethylcellulose (CMC)): 127 % of control [7 of 8 alive]
- T/C (dose: 32.0 mg/kg/injection, schedule: Q## X032 (ip), vehicle: other): 128 % of control
- T/C (dose: 32.4 mg/kg/injection, schedule: Q01DX001 (ip), vehicle: carboxymethylcellulose (CMC)): 144 % of control
- survivor count (dose: 37.5 mg/kg/injection, schedule: Q01DX001 (ip), vehicle: carboxymethylcellulose (CMC)): 0 of 6
- survivor count (dose: 41.0 mg/kg/injection, schedule: Q## X001 (ip), vehicle: other): 50 of 50
- survivor count (dose: 50.0 mg/kg/injection, schedule: Q01DX001 (ip), vehicle: carboxymethylcellulose (CMC)): 2 of 6
- survivor count (dose: 50.0 mg/kg/injection, schedule: Q01DX001 (sc), vehicle: other): 1 of 6
- T/C (dose: 50.0 mg/kg/injection, schedule: Q01DX013 (ip), vehicle: carboxymethylcellulose (CMC)): 144 % of control
- T/C [1]: 703 % of control [9 of 10 alive]
- survivor count [1]: 4 of 10, 5 of 10, 6 of 10
- survivor count (dose: 54.0 mg/kg/injection, schedule: Q01DX001 (oral), vehicle: other): 1 of 9
- T/C (dose: 60.0 mg/kg/injection, schedule: Q## X004 (ip), vehicle: other): 134 % of control [8 of 10 alive]
- survivor count (dose: 75.0 mg/kg/injection, schedule: Q01DX001 (ip), vehicle: carboxymethylcellulose (CMC)): 0 of 6
- survivor count (dose: 81.0 mg/kg/injection, schedule: Q01DX001 (ip), vehicle: other): 3 of 10
- survivor count (dose: 100.0 mg/kg/injection, schedule: Q01DX001 (ip), vehicle: carboxymethylcellulose (CMC)): 0 of 6 and 4 of 8
- survivor count (dose: 100.0 mg/kg/injection, schedule: Q01DX001 (sc), vehicle: carboxymethylcellulose (CMC)): 6 of 8
- survivor count (dose: 100.0 mg/kg/injection, schedule: Q01DX001 (sc), vehicle: other): 0 of 6
- survivor count (dose: 100.0 mg/kg/injection, schedule: Q01DX005 (ip), vehicle: carboxymethylcellulose (CMC)): 1 of 8
- T/C (dose: 100.0 mg/kg/injection, schedule: Q01DX005 (oral), vehicle: carboxymethylcellulose (CMC)): 133 % of control [6 of 8 alive]
- survivor count (dose: 100.0 mg/kg/injection, schedule: Q04DX004 (ip), vehicle: carboxymethylcellulose (CMC)): 5 of 8
- survivor count (dose: 122.0 mg/kg/injection, schedule: Q01DX001 (ip), vehicle: other): 0 of 10
- survivor count (dose: 125.0 mg/kg/injection, schedule: Q01DX001 (ip), vehicle: carboxymethylcellulose (CMC)): 0 of 6
- survivor count (dose: 150.0 mg/kg/injection, schedule: Q01DX001 (ip), vehicle: carboxymethylcellulose (CMC)): 0 of 6
- survivor count (dose: 175.0 mg/kg/injection, schedule: Q01DX001 (ip), vehicle: carboxymethylcellulose (CMC)): 0 of 6
- survivor count (dose: 200.0 mg/kg/injection, schedule: Q01DX001 (oral), vehicle: carboxymethylcellulose (CMC)): 7 of 8
- survivor count (dose: 200.0 mg/kg/injection, schedule: Q01DX001 (sc), vehicle: carboxymethylcellulose (CMC)): 6 of 8
- survivor count (dose: 200.0 mg/kg/injection, schedule: Q01DX001 (sc), vehicle: other): 0 of 6
- survivor count (dose: 225.0 mg/kg/injection, schedule: Q01DX001 (ip), vehicle: carboxymethylcellulose (CMC)): 0 of 6
- survivor count (dose: 250.0 mg/kg/injection, schedule: Q01DX001 (ip), vehicle: carboxymethylcellulose (CMC)): 0 of 6
- survivor count (dose: 300.0 mg/kg/injection, schedule: Q01DX001 (ip), vehicle: carboxymethylcellulose (CMC)): 0 of 6
- survivor count (dose: 375.0 mg/kg/injection, schedule: Q01DX001 (ip), vehicle: carboxymethylcellulose (CMC)): 0 of 6

SMILES: CC(=O)[S][Pb]([c]1ccccc1)([c]1ccccc1)[c]1ccccc1
- survivor count (dose: 9.0 mg/kg/injection, schedule: Q01DX009 (ip), vehicle: saline): 1 of 6
- survivor count (dose: 13.0 mg/kg/injection, schedule: Q01DX009 (ip), vehicle: saline): 0 of 6

SMILES: ClC1=C(Cl)C2(Cl)C3C4C=CC(C4)C3N1C2(Cl)Cl (centres undefined)
- survivor count (dose: 200.0 mg/kg/injection, schedule: Q01DX001 (ip), vehicle: saline with Tween-80): 0 of 6

SMILES: CCCCCCCCCCCCSCO
- survivor count (dose: 400.0 mg/kg/injection, schedule: Q01DX009 (ip), vehicle: saline with Tween-80): 2 of 6
- survivor count (dose: 400.0 mg/kg/injection, schedule: Q04DX003 (ip), vehicle: saline with Tween-80): 1 of 6

SMILES: NCCCCS(=O)(=O)Nc1ccc(Nc2c3ccccc3nc3cc([N+](=O)[O-])ccc23)cc1
- T/C (dose: 4.8 mg/kg/injection, schedule: Q01DX009 (ip), vehicle: saline): 134 % of control
- T/C (dose: 7.2 mg/kg/injection, schedule: Q01DX009 (ip), vehicle: saline): 136 % of control
- T/C (dose: 11.0 mg/kg/injection, schedule: Q01DX009 (ip), vehicle: saline): 139 % of control
- survivor count (dose: 200.0 mg/kg/injection, schedule: Q01DX009 (ip), vehicle: saline): 2 of 6

SMILES: FC(F)(F)c1nc2nc(Cl)c(Cl)nc2s1
- survivor count (dose: 50.0 mg/kg/injection, schedule: Q01DX009 (ip), vehicle: other): 2 of 6
- survivor count (dose: 100.0 mg/kg/injection, schedule: Q01DX009 (ip), vehicle: other): 1 of 6
- survivor count (dose: 200.0 mg/kg/injection, schedule: Q01DX009 (ip), vehicle: other): 0 of 6
- survivor count (dose: 400.0 mg/kg/injection, schedule: Q01DX009 (ip), vehicle: other): 0 of 6

SMILES: COc1cc(C=Nc2ccc(Cl)cc2)ccc1OC(=O)c1ccccc1
- survivor count (dose: 400.0 mg/kg/injection, schedule: Q04DX002 (ip), vehicle: saline with Tween-80): 3 of 3

SMILES: CC(C)C[As](=O)(O)O
- survivor count (dose: 400.0 mg/kg/injection, schedule: Q04DX003 (ip), vehicle: Klucel (hydroxypropylcellulose) (HPC)): 3 of 6

SMILES: Cc1ccc(N2C(=O)C=CC2=O)cc1
- survivor count (dose: 100.0 mg/kg/injection, schedule: Q04DX003 (ip), vehicle: saline): 0 of 6
- survivor count (dose: 200.0 mg/kg/injection, schedule: Q04DX003 (ip), vehicle: saline): 1 of 6
- survivor count (dose: 400.0 mg/kg/injection, schedule: Q04DX003 (ip), vehicle: saline): 0 of 6
